Paper PMC5618791 (Chemical Science, 2017)
Some peptides are written in HELM: one residue between dots, names in brackets for other building blocks, links after the first $. The same purity stands for every peptide and may come from a single statement.

Legend:
[1] = general procedure: Fmoc solid-phase peptide synthesis; Rink Amide MBHA resin (0.36 mmol g-1); HCTU and DIPEA in DMF; details: for isolated mass / isolated yield: whole synthesis; for isolated yield: scale of the general procedure 0.1 mmol; for cyclisation yield / final purity (method not given): cyclisation step; for final purity (method not given): UV-LCMS trace (200-300 nm)
[2] = general procedure: Fmoc solid-phase peptide synthesis; Rink Amide MBHA; HCTU and DIPEA in DMF; details: whole synthesis, UV-LCMS trace (200-300 nm), scale 0.1 mmol

Substance	isolated mass [1]	isolated yield [1]	final purity (method not given) [2]	cyclisation yield [1]	final purity (method not given) [1]
PEPTIDE1{[ac].K.E.T.A.A.[hCys].K.F.E.[hCys].Q.H.M.D.S.[am]}$PEPTIDE1,PEPTIDE1,7:R3-11:R3$$$V2.0	8.1 mg	22.2%	higher than 95%	–	–
PEPTIDE1{[ac].K.E.T.A.A.C.K.F.E.C.Q.H.M.D.S.[am]}$PEPTIDE1,PEPTIDE1,7:R3-11:R3$$$V2.0	6.3 mg	27.1%	higher than 95%	–	–
PEPTIDE1{[ac].E.D.I.I.R.N.I.A.R.H.L.A.C.V.G.D.C.[Nle].D.R.S.I.W.[am]}|CHEM1{[Mal]}$PEPTIDE1,CHEM1,14:R3-1:R1|PEPTIDE1,CHEM1,18:R3-1:R2$$$V2.0	–	–	–	52%	higher than 95%
PEPTIDE1{[ac].K.E.T.A.A.[hCys].K.F.E.[hCys].Q.H.M.D.S.[am]}|CHEM1{[Mal]}$PEPTIDE1,CHEM1,7:R3-1:R1|PEPTIDE1,CHEM1,11:R3-1:R2$$$V2.0	–	–	–	56%	higher than 95%
PEPTIDE1{[ac].K.E.T.A.A.C.K.F.E.C.Q.H.M.D.S.[am]}|CHEM1{[Mal]}$PEPTIDE1,CHEM1,7:R3-1:R1|PEPTIDE1,CHEM1,11:R3-1:R2$$$V2.0	–	–	–	65%	higher than 95%
